# In the supplement of paper PMC10849652:
# Amino acid sequences for entries named in this document (tags omitted). A change or cut given only in a name is not applied to a line headed by its entry.
# UniProt O60499: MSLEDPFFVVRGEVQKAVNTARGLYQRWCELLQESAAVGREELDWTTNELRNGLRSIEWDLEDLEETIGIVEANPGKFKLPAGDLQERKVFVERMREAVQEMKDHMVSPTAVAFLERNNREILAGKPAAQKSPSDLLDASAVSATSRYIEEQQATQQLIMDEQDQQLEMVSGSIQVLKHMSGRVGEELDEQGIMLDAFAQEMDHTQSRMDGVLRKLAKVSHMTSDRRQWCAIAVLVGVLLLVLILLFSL
# UniProt Q9Y2Z0: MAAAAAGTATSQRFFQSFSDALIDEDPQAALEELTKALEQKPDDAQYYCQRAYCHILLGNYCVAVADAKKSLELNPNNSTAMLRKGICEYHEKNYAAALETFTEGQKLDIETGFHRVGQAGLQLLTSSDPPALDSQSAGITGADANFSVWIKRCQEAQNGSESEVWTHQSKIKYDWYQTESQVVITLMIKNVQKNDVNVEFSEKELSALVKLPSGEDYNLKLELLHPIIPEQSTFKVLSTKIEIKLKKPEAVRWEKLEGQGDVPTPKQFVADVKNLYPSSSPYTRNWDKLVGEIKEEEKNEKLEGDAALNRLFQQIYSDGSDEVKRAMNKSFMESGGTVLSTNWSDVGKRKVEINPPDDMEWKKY
# UniProt Q12962, whole entry, looked up: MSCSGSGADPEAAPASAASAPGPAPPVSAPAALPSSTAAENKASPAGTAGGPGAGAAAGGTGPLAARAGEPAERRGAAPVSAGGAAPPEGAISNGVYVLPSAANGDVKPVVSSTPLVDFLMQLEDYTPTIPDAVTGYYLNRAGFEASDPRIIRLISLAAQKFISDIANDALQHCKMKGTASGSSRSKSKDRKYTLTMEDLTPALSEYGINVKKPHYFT
# UniProt Q96A49: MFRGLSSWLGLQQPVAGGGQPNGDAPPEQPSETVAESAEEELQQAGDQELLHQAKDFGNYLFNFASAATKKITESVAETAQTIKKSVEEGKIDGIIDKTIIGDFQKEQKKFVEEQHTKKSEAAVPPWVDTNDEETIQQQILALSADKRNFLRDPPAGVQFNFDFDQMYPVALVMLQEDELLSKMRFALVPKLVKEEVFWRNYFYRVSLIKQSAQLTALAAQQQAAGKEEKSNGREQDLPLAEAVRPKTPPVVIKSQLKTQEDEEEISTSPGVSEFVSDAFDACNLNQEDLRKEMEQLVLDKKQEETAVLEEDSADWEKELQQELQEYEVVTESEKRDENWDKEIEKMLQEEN
# UniProt Q6NXT6: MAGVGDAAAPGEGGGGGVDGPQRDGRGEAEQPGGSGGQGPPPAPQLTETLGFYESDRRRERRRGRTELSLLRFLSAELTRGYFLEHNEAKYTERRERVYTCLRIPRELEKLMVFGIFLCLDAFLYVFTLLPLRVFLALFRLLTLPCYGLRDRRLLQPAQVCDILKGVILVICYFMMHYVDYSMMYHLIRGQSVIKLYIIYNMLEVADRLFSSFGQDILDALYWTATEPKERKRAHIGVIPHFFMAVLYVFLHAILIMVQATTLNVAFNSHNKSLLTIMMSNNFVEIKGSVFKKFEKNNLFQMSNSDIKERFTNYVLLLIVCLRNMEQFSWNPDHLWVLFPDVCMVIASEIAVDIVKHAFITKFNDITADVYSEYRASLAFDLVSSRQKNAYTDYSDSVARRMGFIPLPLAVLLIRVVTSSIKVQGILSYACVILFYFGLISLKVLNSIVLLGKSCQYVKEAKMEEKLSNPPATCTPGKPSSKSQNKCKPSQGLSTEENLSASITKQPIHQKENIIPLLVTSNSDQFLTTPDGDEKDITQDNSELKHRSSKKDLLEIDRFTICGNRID
# UniProt Q7RTN6: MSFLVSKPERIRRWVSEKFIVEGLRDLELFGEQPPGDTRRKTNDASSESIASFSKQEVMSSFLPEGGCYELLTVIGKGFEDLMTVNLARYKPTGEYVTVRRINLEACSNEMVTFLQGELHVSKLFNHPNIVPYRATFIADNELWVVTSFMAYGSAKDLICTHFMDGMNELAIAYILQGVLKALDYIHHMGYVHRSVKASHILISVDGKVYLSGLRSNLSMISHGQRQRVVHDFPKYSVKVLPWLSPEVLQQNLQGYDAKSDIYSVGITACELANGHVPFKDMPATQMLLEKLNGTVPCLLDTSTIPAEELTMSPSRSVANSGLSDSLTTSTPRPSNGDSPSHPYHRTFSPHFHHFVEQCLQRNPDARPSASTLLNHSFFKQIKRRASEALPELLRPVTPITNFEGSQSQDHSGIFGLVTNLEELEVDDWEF
# UniProt Q9UMZ2: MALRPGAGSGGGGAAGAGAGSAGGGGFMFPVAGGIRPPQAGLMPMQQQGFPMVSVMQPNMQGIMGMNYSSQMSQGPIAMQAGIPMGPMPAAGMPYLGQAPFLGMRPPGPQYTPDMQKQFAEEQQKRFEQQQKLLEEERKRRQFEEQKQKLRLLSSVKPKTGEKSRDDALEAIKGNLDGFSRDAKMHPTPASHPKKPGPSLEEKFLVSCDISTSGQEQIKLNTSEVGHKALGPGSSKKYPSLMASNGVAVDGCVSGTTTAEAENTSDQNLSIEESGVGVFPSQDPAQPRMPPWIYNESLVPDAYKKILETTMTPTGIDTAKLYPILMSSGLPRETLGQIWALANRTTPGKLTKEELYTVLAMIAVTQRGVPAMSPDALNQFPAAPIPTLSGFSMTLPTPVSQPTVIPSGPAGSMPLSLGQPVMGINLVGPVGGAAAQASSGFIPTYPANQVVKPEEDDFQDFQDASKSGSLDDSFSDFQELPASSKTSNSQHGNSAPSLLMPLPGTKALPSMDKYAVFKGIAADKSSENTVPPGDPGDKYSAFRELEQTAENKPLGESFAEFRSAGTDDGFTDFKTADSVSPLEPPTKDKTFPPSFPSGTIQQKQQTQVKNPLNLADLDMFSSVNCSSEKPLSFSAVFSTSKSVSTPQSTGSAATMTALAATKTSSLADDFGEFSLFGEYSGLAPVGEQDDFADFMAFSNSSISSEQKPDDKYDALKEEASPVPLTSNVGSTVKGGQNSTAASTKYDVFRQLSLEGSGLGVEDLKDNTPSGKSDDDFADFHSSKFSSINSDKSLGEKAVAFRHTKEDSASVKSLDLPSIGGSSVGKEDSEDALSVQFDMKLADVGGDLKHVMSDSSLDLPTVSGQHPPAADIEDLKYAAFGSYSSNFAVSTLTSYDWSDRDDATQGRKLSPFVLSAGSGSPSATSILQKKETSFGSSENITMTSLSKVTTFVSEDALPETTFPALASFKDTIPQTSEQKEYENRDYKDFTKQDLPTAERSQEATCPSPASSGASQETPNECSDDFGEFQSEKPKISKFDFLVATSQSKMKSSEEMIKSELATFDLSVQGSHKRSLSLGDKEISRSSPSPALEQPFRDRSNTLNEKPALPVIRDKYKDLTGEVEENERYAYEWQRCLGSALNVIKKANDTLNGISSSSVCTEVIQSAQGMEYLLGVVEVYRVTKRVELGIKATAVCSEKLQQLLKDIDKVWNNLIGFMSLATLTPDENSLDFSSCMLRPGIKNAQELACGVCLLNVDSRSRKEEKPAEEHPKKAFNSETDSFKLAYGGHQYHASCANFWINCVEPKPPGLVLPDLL
# UniProt Q5VSL9: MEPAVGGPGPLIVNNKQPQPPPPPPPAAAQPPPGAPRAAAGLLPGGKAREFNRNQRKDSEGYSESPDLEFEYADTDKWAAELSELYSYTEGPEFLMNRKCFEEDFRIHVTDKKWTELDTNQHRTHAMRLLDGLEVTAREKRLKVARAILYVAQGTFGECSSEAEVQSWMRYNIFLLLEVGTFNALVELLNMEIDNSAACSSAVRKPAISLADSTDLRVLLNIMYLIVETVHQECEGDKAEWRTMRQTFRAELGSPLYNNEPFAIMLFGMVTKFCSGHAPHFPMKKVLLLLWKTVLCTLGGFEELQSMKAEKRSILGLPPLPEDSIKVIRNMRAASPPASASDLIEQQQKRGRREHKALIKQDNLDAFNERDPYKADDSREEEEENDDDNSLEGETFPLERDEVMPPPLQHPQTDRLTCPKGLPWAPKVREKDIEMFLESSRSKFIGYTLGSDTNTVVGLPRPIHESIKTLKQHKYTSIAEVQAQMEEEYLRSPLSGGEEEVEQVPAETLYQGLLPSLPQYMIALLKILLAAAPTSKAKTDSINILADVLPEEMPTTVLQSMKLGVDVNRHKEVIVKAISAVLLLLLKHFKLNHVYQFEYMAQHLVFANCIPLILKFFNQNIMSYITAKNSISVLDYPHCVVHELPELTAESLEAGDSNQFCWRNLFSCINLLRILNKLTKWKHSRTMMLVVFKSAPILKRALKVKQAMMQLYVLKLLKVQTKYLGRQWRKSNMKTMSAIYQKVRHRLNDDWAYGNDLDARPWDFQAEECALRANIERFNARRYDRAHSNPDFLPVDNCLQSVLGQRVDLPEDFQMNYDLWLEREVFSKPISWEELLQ
# UniProt Q13190: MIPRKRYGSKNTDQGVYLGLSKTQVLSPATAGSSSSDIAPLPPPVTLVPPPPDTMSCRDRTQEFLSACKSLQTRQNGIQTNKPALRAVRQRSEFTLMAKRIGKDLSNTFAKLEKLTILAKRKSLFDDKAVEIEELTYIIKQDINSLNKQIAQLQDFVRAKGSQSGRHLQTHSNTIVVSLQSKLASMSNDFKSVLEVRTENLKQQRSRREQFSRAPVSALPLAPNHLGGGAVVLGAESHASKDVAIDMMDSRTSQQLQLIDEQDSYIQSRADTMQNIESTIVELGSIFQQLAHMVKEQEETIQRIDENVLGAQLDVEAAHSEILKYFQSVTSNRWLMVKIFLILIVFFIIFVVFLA
# UniProt P50225: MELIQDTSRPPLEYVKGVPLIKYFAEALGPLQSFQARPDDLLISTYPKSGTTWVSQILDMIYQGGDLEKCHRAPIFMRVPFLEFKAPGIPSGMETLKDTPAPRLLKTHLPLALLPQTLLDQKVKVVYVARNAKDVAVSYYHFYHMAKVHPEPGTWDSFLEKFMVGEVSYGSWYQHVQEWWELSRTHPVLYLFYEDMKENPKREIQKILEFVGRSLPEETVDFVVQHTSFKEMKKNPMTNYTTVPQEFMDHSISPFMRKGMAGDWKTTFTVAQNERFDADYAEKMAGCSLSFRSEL
# UniProt Q15545, whole entry, looked up: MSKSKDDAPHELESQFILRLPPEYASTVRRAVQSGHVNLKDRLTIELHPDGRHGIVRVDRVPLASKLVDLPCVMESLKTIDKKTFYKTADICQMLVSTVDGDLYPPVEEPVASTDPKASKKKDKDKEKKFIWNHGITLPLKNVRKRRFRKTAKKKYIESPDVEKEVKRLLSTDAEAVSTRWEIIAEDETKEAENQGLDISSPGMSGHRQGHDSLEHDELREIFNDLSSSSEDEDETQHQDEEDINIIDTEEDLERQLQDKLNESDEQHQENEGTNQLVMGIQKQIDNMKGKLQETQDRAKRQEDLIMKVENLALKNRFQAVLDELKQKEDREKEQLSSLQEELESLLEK
# UniProt Q8NHG7: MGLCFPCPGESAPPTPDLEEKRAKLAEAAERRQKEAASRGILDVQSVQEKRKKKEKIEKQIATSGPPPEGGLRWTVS
# UniProt Q7Z7C8, whole entry, looked up: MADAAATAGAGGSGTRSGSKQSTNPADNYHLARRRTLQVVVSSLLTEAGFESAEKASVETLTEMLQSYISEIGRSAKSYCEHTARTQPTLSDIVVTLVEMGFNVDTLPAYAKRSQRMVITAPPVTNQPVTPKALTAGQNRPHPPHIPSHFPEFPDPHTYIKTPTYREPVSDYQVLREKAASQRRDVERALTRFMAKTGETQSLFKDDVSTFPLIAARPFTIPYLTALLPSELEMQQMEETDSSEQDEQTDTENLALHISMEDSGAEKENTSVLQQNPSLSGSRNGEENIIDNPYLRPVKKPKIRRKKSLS
# UniProt Q13277: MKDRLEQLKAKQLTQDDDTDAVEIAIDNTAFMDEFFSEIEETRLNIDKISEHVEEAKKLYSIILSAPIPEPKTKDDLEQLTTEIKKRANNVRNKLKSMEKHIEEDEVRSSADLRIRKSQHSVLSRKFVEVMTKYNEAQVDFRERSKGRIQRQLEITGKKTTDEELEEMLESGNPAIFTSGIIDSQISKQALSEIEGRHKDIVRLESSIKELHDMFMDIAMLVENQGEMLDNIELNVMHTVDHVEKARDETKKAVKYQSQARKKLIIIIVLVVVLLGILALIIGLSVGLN
# The other results are listed elsewhere or left out. Residues, ends and D or L forms follow the SMILES beside them. *: point of attachment. Cbz = O=C(OCc1ccccc1)*
# Experiments:
# Assay in all cases: log2 fold change, soluble protein after heating vs DMSO (PISA); higher = thermal stabilisation; K562 cells, 10 uM, 30 min; active = over 0.2 and 3.5 SD of the protein, either way, in both replicates (recomputed)
# [1] = compound: C#Cc1cccc(Nc2ncnc3cc(OCCOC)c(OCCOC)cc23)c1 [erlotinib]
# How it was run: (§1)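 Thermal stability values are relative to control samples and come from duplicates. They are expressed as log2 fold changes. For measurement, K562 cells (2×10^6 cells/mL) received 10 μM compound for 30 min, and aliquots were heated for 3 min over 48°C-58°C, pooled, and extracted at 4°C in PBS with 0.5% NP-40. Soluble protein, the supernatant after 21,000xg for 90 min, was quantified by TMTpro 16plex LC-MS/MS with equalised channel sums.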
# [2] = compound: C/C(=N\NC(=O)C1=CC(=CC=C1)S(=O)(=O)N2CCOCC2)/C3=C(C=CC(=C3)Cl)O
# How it was run: as §1
# [3] = compound: C1=CC(=C(C=C1Cl)C2=NC3=NC=CN=C3C(=N2)NC4=CC=NC=C4)F
# How it was run: as §1
# [4] = compound: C1=CC(=CC=C1C2=NC3=C(N2)C=C(C=C3)C(=O)N)OC4=CC=C(C=C4)Cl
# How it was run: as §1
# [5] = compound: C1=CC2=C(C=CC(=C2)/C=C\3/C(=O)NC(=NCC4=CC=CS4)S3)N=C1
# How it was run: as §1
# [6] = compound: C1=CC2=NC=CN=C2C=C1/C=C/3\C(=O)NC(=O)S3
# How it was run: as §1
# [7] = compound: C1=CC=C(C=C1)C2=NC(=C(N2)C3=CC=NC=C3)C4=CC(=C(C=C4)Cl)O
# How it was run: as §1
# [8] = compound: C1=CC=C2C(=C1)C3=NNC4=CC=CC(=C43)C2=O
# How it was run: as §1
# [9] = compound: C1CCN(C1)C(=O)NC2=CC=CC(=C2)NC3=NC=C(C(=N3)NCCC4=CN=CN4)Br
# How it was run: as §1
# [10] = compound: C1CN(CCC1(CC2=CC=C(C=C2)Cl)N)C3=NC=NC4=C3C=CN4
# How it was run: as §1
# [11] = compound: C1COCCN1CCN2C3=CC=CC=C3N=C2NC(=O)C4=CC(=CC=C4)[N+](=O)[O-] [IRAK-1-4 Inhibitor I]
# How it was run: as §1
# [12] = compound: C=CC(=O)N1CCC[C@@H](n2nc(-c3ccc(Oc4ccccc4)cc3)c3c(N)ncnc32)C1 [ibrutinib]
# How it was run: as §1
# [13] = compound: CC(=O)c1cnc2ccc(-c3cc(Cl)c(O)c(Cl)c3)nc2c1N[C@H]1CC[C@H](CN(C)C)CC1
# How it was run: as §1
# [14] = compound: CC(C)(C)Cn1c(N)nc2ccc(-c3[nH]c(C(C)(C)C)nc3-c3ccc(F)cc3)nc21 [ralimetinib]
# How it was run: as §1
# [15] = compound: CC(C)(O)CC(=O)NCCn1ccc2ncnc(Nc3ccc(Oc4cccc(C(F)(F)F)c4)c(Cl)c3)c21
# How it was run: as §1
# [16] = compound: CC(C)C1=C2N=C(C=C(N2N=C1)NCC3=CC=CC=C3)NCCCCCCN
# How it was run: as §1
# [17] = compound: CC(C)C[C@@H](C=O)NC(=O)[C@H](CC(C)C)NC(=O)[C@H](CC(C)C)NC(=O)OCc1ccccc1
# How it was run: as §1
# [18] = compound: CC(C)N(C[C@H]1O[C@@H](n2cnc3c(N)ncnc32)[C@H](O)[C@@H]1O)[C@H]1C[C@@H](CCc2nc3cc(C(C)(C)C)ccc3[nH]2)C1 [pinometostat]
# How it was run: as §1
# [19] = compound: CC1=C(C(CC(=O)N1)C2=CC=C(C=C2)C(F)(F)F)C(=O)NC3=C(C=C4C(=C3)C=NN4)F
# How it was run: as §1
# [20] = compound: CC1=C(C2=C(C=C1)C(=O)C3=CC=CC=C3N2CCCN)C
# How it was run: as §1
Target,log2 fold change [1],log2 fold change [2],log2 fold change [3],log2 fold change [4],log2 fold change [5],log2 fold change [6],log2 fold change [7],log2 fold change [8],log2 fold change [9],log2 fold change [10],log2 fold change [11],log2 fold change [12],log2 fold change [13],log2 fold change [14],log2 fold change [15],log2 fold change [16],log2 fold change [17],log2 fold change [18],log2 fold change [19],log2 fold change [20]
STX10 (UniProt O60499),inactive: 0.149,inactive: -0.073,inactive: -0.052,inactive: -0.014,inactive: 0.049,inactive: 0.34,inactive: -0.07,inactive: 0.047,inactive: 0.041,inactive: 0.041,inactive: -0.083,inactive: -0.164,inactive: -0.037,inactive: -0.04,inactive: 0.085,inactive: 0.028,inactive: 0.024,inactive: -0.014,inactive: 0.059,inactive: 0.005
SUGT1 (UniProt Q9Y2Z0),inactive: -0.008,inactive: 0.005,inactive: 0.055,inactive: -0.01,inactive: -0.06,inactive: 0.037,inactive: 0.049,inactive: 0.009,inactive: 0.006,inactive: -0.024,inactive: 0.021,inactive: -0.024,inactive: 0.02,inactive: 0.05,inactive: 0.005,inactive: 0.001,inactive: -0.012,inactive: -0.063,inactive: -0.004,inactive: -0.027
TAF10 (UniProt Q12962),inactive: -0.012,inactive: -0.046,inactive: 0.111,inactive: 0.077,inactive: 0.064,inactive: 0.026,inactive: 0.003,inactive: -0.072,inactive: -0.06,inactive: 0.037,inactive: -0.035,inactive: 0.051,inactive: 0.015,inactive: -0.011,inactive: -0.038,inactive: 0.129,inactive: -0.068,inactive: -0.062,inactive: 0.085,inactive: 0.109
SYAP1 (UniProt Q96A49),inactive: -0.007,inactive: 0.03,inactive: 0.095,inactive: -0.021,inactive: 0,inactive: 0.093,inactive: 0,inactive: -0.004,inactive: 0.031,inactive: 0.005,inactive: 0.025,inactive: -0.044,inactive: -0.007,inactive: -0.012,inactive: -0.015,inactive: 0.004,inactive: -0.034,inactive: -0.028,inactive: -0.007,inactive: 0.013
TAPT1 (UniProt Q6NXT6),inactive: 0.029,inactive: -0.022,inactive: 0.05,inactive: 0.024,inactive: 0.057,inactive: -0.004,inactive: -0.041,inactive: -0.041,inactive: -0.005,inactive: 0.003,inactive: -0.008,inactive: 0.01,inactive: 0.02,inactive: -0.085,inactive: 0.027,inactive: 0.014,inactive: 0.018,inactive: 0.024,inactive: 0.006,inactive: -0.003
"SYNJ2BP-COX16, A0A087WYV9",inactive: -0.014,inactive: -0.019,inactive: -0.043,inactive: 0.006,inactive: 0.026,inactive: 0.051,inactive: 0.016,inactive: -0.006,inactive: -0.001,inactive: 0.046,inactive: 0.058,inactive: 0.067,inactive: -0.036,inactive: -0.04,inactive: 0.042,inactive: 0.002,inactive: 0.053,inactive: 0.007,inactive: -0.031,inactive: -0.066
STRADA (UniProt Q7RTN6),inactive: -0.015,inactive: -0.039,inactive: -0.013,inactive: 0.036,inactive: 0.007,inactive: 0.037,inactive: 0.022,inactive: -0.05,inactive: 0.026,inactive: 0.036,inactive: 0.076,inactive: 0.058,inactive: -0.116,inactive: -0.05,inactive: -0.115,inactive: 0.093,inactive: 0.034,inactive: -0.029,inactive: 0.019,inactive: -0.047
SYNRG (UniProt Q9UMZ2),inactive: -0.012,inactive: 0.023,inactive: -0.014,inactive: 0.004,inactive: -0.044,inactive: 0.037,inactive: 0.029,inactive: -0.042,inactive: 0.053,inactive: -0.005,inactive: 0.019,inactive: -0.039,inactive: 0.067,inactive: 0.099,inactive: 0.068,inactive: -0.016,inactive: -0.064,inactive: 0.014,inactive: 0.025,inactive: -0.05
STRIP1 (UniProt Q5VSL9),inactive: 0.039,inactive: 0.039,inactive: 0.09,inactive: -0.011,inactive: -0.015,inactive: 0.04,inactive: 0.02,inactive: -0.01,inactive: -0.069,inactive: 0.049,inactive: -0.005,inactive: -0.067,inactive: 0.023,inactive: 0.067,inactive: -0.094,inactive: -0.007,inactive: -0.004,inactive: -0.008,inactive: -0.008,inactive: 0.012
STX5 (UniProt Q13190),inactive: -0.003,inactive: 0.089,inactive: -0.068,inactive: 0.002,inactive: 0.057,inactive: -0.025,inactive: 0.042,inactive: 0.039,inactive: -0.087,inactive: -0.025,inactive: -0.08,inactive: -0.053,inactive: -0.009,inactive: 0.046,inactive: -0.066,inactive: -0.023,inactive: -0.021,inactive: 0.096,inactive: -0.156,inactive: 0.145
SULT1A1 (UniProt P50225),inactive: -0.003,inactive: 0.009,inactive: 0.109,inactive: 0.381,active: 0.375,inactive: 0.031,inactive: 0.008,active: 0.396,inactive: -0.111,inactive: 0.012,inactive: -0.077,inactive: 0.044,inactive: -0.099,inactive: -0.029,inactive: -0.104,inactive: -0.104,inactive: -0.056,inactive: 0.001,,inactive: 0.048
TAF7 (UniProt Q15545),inactive: -0.024,inactive: -0.01,inactive: -0.044,inactive: 0.006,inactive: 0.041,inactive: 0.003,inactive: -0.072,inactive: -0.011,inactive: -0.008,inactive: 0.021,inactive: 0.026,inactive: -0.028,inactive: -0.036,inactive: -0.042,inactive: 0.007,inactive: -0.006,inactive: 0.179,inactive: -0.021,inactive: 0.004,inactive: -0.074
SVIP (UniProt Q8NHG7),inactive: -0.009,inactive: 0.051,inactive: 0.037,inactive: -0.037,inactive: 0.076,inactive: -0.013,inactive: 0.028,inactive: -0.163,inactive: 0.034,inactive: 0.039,inactive: -0.027,inactive: 0.075,inactive: -0.065,inactive: 0.044,inactive: -0.022,inactive: 0.131,inactive: -0.036,inactive: -0.085,inactive: 0.029,inactive: 0.057
TAF8 isoform 2 (UniProt Q7Z7C8),inactive: -0.055,inactive: -0.285,inactive: 0.106,inactive: 0.062,inactive: 0.077,inactive: 0.084,inactive: 0.012,inactive: 0.028,inactive: -0.053,inactive: -0.003,inactive: 0.083,inactive: -0.055,inactive: 0.085,inactive: 0.021,inactive: -0.087,inactive: 0.014,inactive: 0.007,inactive: 0.121,inactive: 0.01,inactive: -0.024
STX3 (UniProt Q13277),inactive: 0.025,inactive: -0.022,inactive: 0.011,inactive: 0.007,inactive: 0.001,inactive: 0.04,inactive: 0.047,inactive: -0.015,inactive: -0.052,inactive: 0.025,inactive: -0.035,inactive: -0.006,inactive: 0.018,inactive: -0.013,inactive: 0.04,inactive: -0.095,inactive: 0.056,inactive: -0.004,inactive: -0.063,inactive: 0.022

# Part of the list above, showing only log2 fold change [20] and log2 fold change [11]:
Target	log2 fold change [20]	log2 fold change [11]
SYAP1 (UniProt Q96A49)	inactive: 0.013	inactive: 0.025
TAPT1 (UniProt Q6NXT6)	inactive: -0.003	inactive: -0.008
